# Measurements taken from the M2OR odorant receptor database.
# Chains of the proteins cited; added tags and fusions are not shown. A line that says so, or that is headed by a name, gives the form on record, which may keep a tag or linker.
# OR9G9, as listed by the source: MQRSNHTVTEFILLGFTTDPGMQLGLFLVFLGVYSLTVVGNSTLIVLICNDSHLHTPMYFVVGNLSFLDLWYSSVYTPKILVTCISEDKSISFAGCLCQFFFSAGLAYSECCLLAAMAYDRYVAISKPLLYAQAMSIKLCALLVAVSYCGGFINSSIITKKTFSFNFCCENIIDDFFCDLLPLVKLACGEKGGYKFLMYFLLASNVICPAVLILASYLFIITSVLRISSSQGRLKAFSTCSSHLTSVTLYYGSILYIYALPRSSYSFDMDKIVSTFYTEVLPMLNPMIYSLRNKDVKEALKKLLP
# The entries are a selection whose mix differs from that of the whole data set. Calls are pooled over several reports, among them a noisy single-well screen. The list shows a part of the results.
# Experiments:
# Conditions in all cases: stereoisomer not certain
# OR9G4 = system: T1, OR9G4
# T1 sequence (whole entry): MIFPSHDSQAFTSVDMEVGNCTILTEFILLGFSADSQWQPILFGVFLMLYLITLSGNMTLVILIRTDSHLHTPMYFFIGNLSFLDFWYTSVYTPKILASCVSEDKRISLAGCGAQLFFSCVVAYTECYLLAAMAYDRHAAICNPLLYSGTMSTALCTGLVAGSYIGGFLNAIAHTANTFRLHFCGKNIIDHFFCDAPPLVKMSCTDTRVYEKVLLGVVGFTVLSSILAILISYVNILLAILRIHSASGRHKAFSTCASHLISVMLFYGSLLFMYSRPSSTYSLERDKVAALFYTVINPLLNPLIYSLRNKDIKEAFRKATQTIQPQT
# Procedure, shortened: (§1)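 Values were gathered from published papers (main text and supplementary material), with extra details requested from the original authors when needed, and checked for typos and inconsistencies. Each receptor–molecule pair is called responsive (active) if the original authors judged the measured signal statistically different from baseline, and non-responsive (inactive) otherwise. Assay methods varied by source, often transient mammalian cell-line luciferase assays. Recorded details include cell line, G-protein, co-transfected protein and tags.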
# OR9G9 [1] = system: T2, OR9G9
# T2 sequence (whole entry): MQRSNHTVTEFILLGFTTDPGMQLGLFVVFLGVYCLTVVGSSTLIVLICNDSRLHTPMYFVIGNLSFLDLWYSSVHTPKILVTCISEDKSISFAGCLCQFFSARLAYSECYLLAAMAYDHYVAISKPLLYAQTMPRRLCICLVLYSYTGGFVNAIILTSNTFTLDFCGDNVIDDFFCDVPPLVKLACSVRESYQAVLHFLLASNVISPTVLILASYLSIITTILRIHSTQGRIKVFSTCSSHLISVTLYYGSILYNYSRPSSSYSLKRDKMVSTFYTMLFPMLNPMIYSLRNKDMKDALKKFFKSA
# Procedure, shortened: as §1
# OR9G9 [2] = system: T3, OR9G9; remark: listed apart in the source
# T3 sequence (whole entry): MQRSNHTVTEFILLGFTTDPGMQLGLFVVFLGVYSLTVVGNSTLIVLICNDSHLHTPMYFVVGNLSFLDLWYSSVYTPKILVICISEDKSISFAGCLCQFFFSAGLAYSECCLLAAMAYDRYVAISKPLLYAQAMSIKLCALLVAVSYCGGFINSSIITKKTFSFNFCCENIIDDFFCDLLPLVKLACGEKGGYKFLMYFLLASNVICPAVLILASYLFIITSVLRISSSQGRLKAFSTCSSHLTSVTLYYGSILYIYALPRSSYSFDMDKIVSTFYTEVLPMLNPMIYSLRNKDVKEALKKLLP
# Procedure, shortened: as §1
# OR9I1 (Homo sapiens) = target: T4, OR9I1 (Homo sapiens) (UniProt Q8NGQ6)
# T4 sequence (whole entry): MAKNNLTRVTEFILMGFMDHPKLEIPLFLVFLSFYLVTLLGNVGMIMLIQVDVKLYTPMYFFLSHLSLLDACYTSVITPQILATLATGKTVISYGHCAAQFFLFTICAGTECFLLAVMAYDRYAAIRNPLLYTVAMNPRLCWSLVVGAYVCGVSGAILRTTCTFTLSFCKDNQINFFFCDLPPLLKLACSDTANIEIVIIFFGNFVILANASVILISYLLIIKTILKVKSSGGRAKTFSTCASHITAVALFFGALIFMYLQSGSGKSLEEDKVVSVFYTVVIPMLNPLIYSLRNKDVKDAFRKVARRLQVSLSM
# Procedure, shortened: as §1
# OR9K2 (Homo sapiens) = target: T5, OR9K2 (Homo sapiens) (UniProt Q8NGE7)
# T5 sequence (whole entry): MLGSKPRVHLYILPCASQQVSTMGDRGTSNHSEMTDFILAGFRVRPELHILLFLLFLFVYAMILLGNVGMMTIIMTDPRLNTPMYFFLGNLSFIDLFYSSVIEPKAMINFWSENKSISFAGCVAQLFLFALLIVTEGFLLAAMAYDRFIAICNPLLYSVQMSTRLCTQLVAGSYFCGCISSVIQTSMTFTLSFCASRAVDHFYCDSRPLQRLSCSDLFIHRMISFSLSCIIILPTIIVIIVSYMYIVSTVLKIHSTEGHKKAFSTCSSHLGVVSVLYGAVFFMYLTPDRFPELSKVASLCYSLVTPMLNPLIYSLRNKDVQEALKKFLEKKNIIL
# Procedure, shortened: as §1
# OR9Q1 = system: T6, OR9Q1
# T6 sequence (whole entry): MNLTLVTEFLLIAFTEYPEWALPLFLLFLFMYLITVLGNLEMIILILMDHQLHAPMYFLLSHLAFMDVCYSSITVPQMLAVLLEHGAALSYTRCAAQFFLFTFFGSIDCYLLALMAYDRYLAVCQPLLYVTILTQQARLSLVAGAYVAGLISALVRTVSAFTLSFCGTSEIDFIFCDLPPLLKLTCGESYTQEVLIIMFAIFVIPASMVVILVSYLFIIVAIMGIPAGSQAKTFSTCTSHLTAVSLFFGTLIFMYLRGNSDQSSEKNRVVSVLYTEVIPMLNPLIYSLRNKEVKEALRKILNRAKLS
# Procedure, shortened: as §1
# OR9Q2 (Homo sapiens) = target: T7, OR9Q2 (Homo sapiens) (UniProt Q8NGE9)
# T7 sequence (whole entry): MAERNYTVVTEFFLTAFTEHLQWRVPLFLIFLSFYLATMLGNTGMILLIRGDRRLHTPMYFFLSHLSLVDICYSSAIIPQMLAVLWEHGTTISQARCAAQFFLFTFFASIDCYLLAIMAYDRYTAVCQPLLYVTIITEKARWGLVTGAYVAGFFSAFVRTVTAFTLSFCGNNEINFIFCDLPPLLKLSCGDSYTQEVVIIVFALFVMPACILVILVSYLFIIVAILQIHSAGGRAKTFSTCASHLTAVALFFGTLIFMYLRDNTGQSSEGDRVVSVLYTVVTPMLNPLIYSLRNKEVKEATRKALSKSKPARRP
# Procedure, shortened: as §1
# OR9G9 [3] = system: OR9G9; remark: listed apart in the source
# Procedure, shortened: as §1
# OR9G9 (Homo sapiens) = OR9G9 (Homo sapiens) (UniProt P0C7N8)
# Procedure, shortened: as §1
# OR9Q1 (Homo sapiens) = OR9Q1 (Homo sapiens) (UniProt Q8NGQ5)
# Procedure, shortened: as §1
SMILES,odorant receptor agonist call (OR9G4),odorant receptor agonist call (OR9G9 [1]),odorant receptor agonist call (OR9G9 [2]),odorant receptor agonist call (OR9I1 (Homo sapiens)),odorant receptor agonist call (OR9K2 (Homo sapiens)),odorant receptor agonist call (OR9Q1),odorant receptor agonist call (OR9Q2 (Homo sapiens)),odorant receptor agonist call (OR9G9 [3]),odorant receptor agonist call (OR9G9 (Homo sapiens)),odorant receptor agonist call (OR9Q1 (Homo sapiens))
CC(C)C(=O)O,inactive,inactive,inactive,inactive,inactive,active,inactive,–,–,–
c1cnccn1,inactive,inactive,inactive,inactive,inactive,inactive,inactive,–,–,–
C=CCSCC=C,inactive,inactive,inactive,inactive,inactive,inactive,inactive,–,–,–
CCCCCOC(C)=O,active,inactive,active,inactive,inactive,inactive,inactive,–,–,–
CC(C)=CCCC(C)=CC=O,inactive,inactive,inactive,inactive,inactive,inactive,inactive,–,–,–
CC(=O)OC1CC2CCC1(C)C2(C)C (stereo not given),inactive,inactive,inactive,inactive,inactive,inactive,inactive,–,–,–
CC1CCC(C(C)C)C(O)C1 (stereo not given),inactive,inactive,inactive,inactive,inactive,inactive,active,–,–,–
CCCC(=O)O,inactive,inactive,inactive,inactive,inactive,inactive,inactive,–,–,–
COC(=O)c1ccccc1O,inactive,inactive,inactive,inactive,inactive,inactive,inactive,–,–,–
CCC1(O)C2(C)CCC(C2)C1(C)C (stereo not given),inactive,inactive,inactive,inactive,inactive,inactive,inactive,–,–,–
C=CC(C)(O)CCC=C(C)C (stereo not given),inactive,inactive,inactive,inactive,inactive,inactive,inactive,–,–,–
CCCCO,inactive,inactive,inactive,inactive,inactive,inactive,inactive,–,–,–
CC(C)(C)c1ccc(CCC=O)cc1,inactive,inactive,inactive,inactive,inactive,inactive,inactive,–,–,–
CC(C)C=O,inactive,inactive,inactive,inactive,inactive,inactive,inactive,–,–,–
CCCCCCOC(=O)CCC,inactive,inactive,inactive,inactive,inactive,inactive,inactive,–,–,–
CCC=CCCO,inactive,inactive,inactive,inactive,inactive,inactive,inactive,–,–,–
CC(C)CC(=O)O,inactive,inactive,inactive,inactive,inactive,active,inactive,–,–,–
C=CCc1ccc(OC(C)=O)c(OC)c1,inactive,inactive,inactive,inactive,inactive,active,inactive,active,–,–
CCCCCC(=O)O,inactive,inactive,inactive,inactive,inactive,inactive,inactive,–,–,–
CC(=O)OC(C)(C)C1CC=C(C)CC1 (stereo not given),inactive,inactive,inactive,inactive,inactive,inactive,inactive,–,–,–
CC(=O)C(C)=O,inactive,inactive,inactive,inactive,inactive,inactive,inactive,–,–,–
O=C1CCCCCCCCCCCCCCO1,inactive,inactive,inactive,inactive,inactive,inactive,inactive,–,–,–
CC12C=CCC1C1CCC3CC(=O)CCC3(C)C1CC2 (stereo not given),inactive,active,inactive,–,inactive,inactive,inactive,–,inactive,inactive
CC(C)CCC(=O)O,inactive,inactive,inactive,inactive,inactive,inactive,inactive,–,–,–

# Fetched by compound from the entries so far, two records:
SMILES,odorant receptor agonist call (OR9G4),odorant receptor agonist call (OR9G9 [1]),odorant receptor agonist call (OR9G9 [2]),odorant receptor agonist call (OR9I1 (Homo sapiens)),odorant receptor agonist call (OR9K2 (Homo sapiens)),odorant receptor agonist call (OR9Q1),odorant receptor agonist call (OR9Q2 (Homo sapiens)),odorant receptor agonist call (OR9G9 [3]),odorant receptor agonist call (OR9G9 (Homo sapiens)),odorant receptor agonist call (OR9Q1 (Homo sapiens))
O=C1CCCCCCCCCCCCCCO1,inactive,inactive,inactive,inactive,inactive,inactive,inactive,–,–,–
CC1CCC(C(C)C)C(O)C1 (stereo not given),inactive,inactive,inactive,inactive,inactive,inactive,active,–,–,–
